Some entries share one result that the patent states for a list of compounds.
Columns and labels:
Assay type in all cases: in vivo
[1] = test system: Gaeumannomyces graminis; experiment: Malt damping off, seed treatment; conditions: contaminated malt seeds, seed treatment 200 g compound per 100 kg seeds, 1 month
[2] = test system: Fusarium oxysporum; experiment: Preventing infection by tomato wilt by soil treatment (irrigation); conditions: tomato (Patio) in contaminated soil, 10 mg compound per pot by soil irrigation, 1 month
[3] = test system: Verticillium albo-atrum, V. dahliae, V. nigrescens; experiment: Potato blue stem, soil irrigation treatment; conditions: potato (Danshaku) in contaminated soil, 10 mg compound per pot by soil irrigation, 2 months
[4] = test system: Gibberella fujikuroi; experiment: Rice bakanae disease, seed treatment; conditions: contaminated unhulled rice, seed treatment 200 g compound per 100 kg seeds, 1 month
[5] = test system: Sclerotinia sclerotiorum; experiment: Preventing infection by cucumber Sclerotinia rot, foliage application; conditions: cucumber (Sagami-Hanjiro), flowable formulation 500 ppm foliage application, then inoculation; 18° C. high humidity 4 days

SMILES | growth of treated plants [1] | blotches in treated plants [2] | growth of treated plants [2] | blotches in treated plants [3] | growth of treated plants [3] | growth of treated plants [4] | infected areas of treated plants relative to infected areas of untreated plants [5]
O=C(NCc1cccc(O)c1F)c1ccc2ncccc2c1 [Compound 131] | favorably grow at a level equivalent to that of plants that grow from noncontaminated seeds | no blotches are found | favorably grow at a level equivalent to that of plants that grow have in noncontaminated soil | no blotches are found | favorably grow at a level equivalent to that of plants that grow in noncontaminated soil | favorably grow at a level equivalent to that of plants that have grown from noncontaminated unhulled rice | ≤ 10%
O=C(NCc1ccc(CCc2ccccc2)cc1)c1ccc2ncccc2n1 [Compound 133] | favorably grow at a level equivalent to that of plants that grow from noncontaminated seeds | no blotches are found | favorably grow at a level equivalent to that of plants that grow have in noncontaminated soil | no blotches are found | favorably grow at a level equivalent to that of plants that grow in noncontaminated soil | favorably grow at a level equivalent to that of plants that have grown from noncontaminated unhulled rice | ≤ 10%
O=C(NCc1cccc(OCCCc2ccccc2)c1F)c1ccc2ncccc2c1 [Compound 136] | favorably grow at a level equivalent to that of plants that grow from noncontaminated seeds | no blotches are found | favorably grow at a level equivalent to that of plants that grow have in noncontaminated soil | no blotches are found | favorably grow at a level equivalent to that of plants that grow in noncontaminated soil | favorably grow at a level equivalent to that of plants that have grown from noncontaminated unhulled rice | ≤ 10%
O=C(NCc1ccc(F)cc1)c1ccc2ncccc2n1 [Compound 138] | favorably grow at a level equivalent to that of plants that grow from noncontaminated seeds | no blotches are found | favorably grow at a level equivalent to that of plants that grow have in noncontaminated soil | no blotches are found | favorably grow at a level equivalent to that of plants that grow in noncontaminated soil | favorably grow at a level equivalent to that of plants that have grown from noncontaminated unhulled rice | ≤ 10%
Cc1ccc(Oc2ccc(CNC(=O)c3ccc4ncccc4c3)cc2)cc1 [Compound 139] | favorably grow at a level equivalent to that of plants that grow from noncontaminated seeds | no blotches are found | favorably grow at a level equivalent to that of plants that grow have in noncontaminated soil | no blotches are found | favorably grow at a level equivalent to that of plants that grow in noncontaminated soil | favorably grow at a level equivalent to that of plants that have grown from noncontaminated unhulled rice | ≤ 10%
Cc1cccc(Oc2cccc(CNC(=O)c3ccc4ncccc4c3)c2)c1 [Compound 140] | favorably grow at a level equivalent to that of plants that grow from noncontaminated seeds | no blotches are found | favorably grow at a level equivalent to that of plants that grow have in noncontaminated soil | no blotches are found | favorably grow at a level equivalent to that of plants that grow in noncontaminated soil | favorably grow at a level equivalent to that of plants that have grown from noncontaminated unhulled rice | ≤ 10%
O=C(NCc1cccc(OCCCCc2ccccc2)c1)c1ccc2ncccc2c1 [Compound 141] | favorably grow at a level equivalent to that of plants that grow from noncontaminated seeds | no blotches are found | favorably grow at a level equivalent to that of plants that grow have in noncontaminated soil | no blotches are found | favorably grow at a level equivalent to that of plants that grow in noncontaminated soil | favorably grow at a level equivalent to that of plants that have grown from noncontaminated unhulled rice | ≤ 10%
O=C(NCc1ccc(Cl)s1)c1ccc2ncccc2c1 [Compound 143] | favorably grow at a level equivalent to that of plants that grow from noncontaminated seeds | no blotches are found | favorably grow at a level equivalent to that of plants that grow have in noncontaminated soil | no blotches are found | favorably grow at a level equivalent to that of plants that grow in noncontaminated soil | favorably grow at a level equivalent to that of plants that have grown from noncontaminated unhulled rice | ≤ 10%
O=C(NCc1cccc(OCC=CCl)c1)c1ccc2ncccc2c1 [Compound 144] | favorably grow at a level equivalent to that of plants that grow from noncontaminated seeds | no blotches are found | favorably grow at a level equivalent to that of plants that grow have in noncontaminated soil | no blotches are found | favorably grow at a level equivalent to that of plants that grow in noncontaminated soil | favorably grow at a level equivalent to that of plants that have grown from noncontaminated unhulled rice | ≤ 10%
O=C(NCc1cccc(OCC=C(Cl)Cl)c1)c1ccc2ncccc2c1 [Compound 146] | favorably grow at a level equivalent to that of plants that grow from noncontaminated seeds | no blotches are found | favorably grow at a level equivalent to that of plants that grow have in noncontaminated soil | no blotches are found | favorably grow at a level equivalent to that of plants that grow in noncontaminated soil | favorably grow at a level equivalent to that of plants that have grown from noncontaminated unhulled rice | ≤ 10%
O=C(NCc1cccc(OCC2CCCO2)c1)c1ccc2ncccc2c1 (centres unmarked) [Compound 149] | favorably grow at a level equivalent to that of plants that grow from noncontaminated seeds | no blotches are found | favorably grow at a level equivalent to that of plants that grow have in noncontaminated soil | no blotches are found | favorably grow at a level equivalent to that of plants that grow in noncontaminated soil | favorably grow at a level equivalent to that of plants that have grown from noncontaminated unhulled rice | ≤ 10%
N#CCCCOc1cccc(CNC(=O)c2ccc3ncccc3c2)c1 [Compound 150] | favorably grow at a level equivalent to that of plants that grow from noncontaminated seeds | no blotches are found | favorably grow at a level equivalent to that of plants that grow have in noncontaminated soil | no blotches are found | favorably grow at a level equivalent to that of plants that grow in noncontaminated soil | favorably grow at a level equivalent to that of plants that have grown from noncontaminated unhulled rice | ≤ 10%
COc1cc(CNC(=O)c2ccc3ncccc3c2)cc(OC)c1 [Compound 151] | favorably grow at a level equivalent to that of plants that grow from noncontaminated seeds | no blotches are found | favorably grow at a level equivalent to that of plants that grow have in noncontaminated soil | no blotches are found | favorably grow at a level equivalent to that of plants that grow in noncontaminated soil | favorably grow at a level equivalent to that of plants that have grown from noncontaminated unhulled rice | ≤ 10%
O=C(NCc1ccccc1F)c1ccc2ncsc2c1 [Compound 153] | favorably grow at a level equivalent to that of plants that grow from noncontaminated seeds | no blotches are found | favorably grow at a level equivalent to that of plants that grow have in noncontaminated soil | no blotches are found | favorably grow at a level equivalent to that of plants that grow in noncontaminated soil | favorably grow at a level equivalent to that of plants that have grown from noncontaminated unhulled rice | ≤ 10%
